Results as given in the supplement of paper PMC7666118.
The other results are listed elsewhere or left out.

Sequences of proteins named here, by UniProt entry; tags and fusion partners are left off. A change or cut given only in a name is not applied to a line headed by its entry.
UniProt Q07108: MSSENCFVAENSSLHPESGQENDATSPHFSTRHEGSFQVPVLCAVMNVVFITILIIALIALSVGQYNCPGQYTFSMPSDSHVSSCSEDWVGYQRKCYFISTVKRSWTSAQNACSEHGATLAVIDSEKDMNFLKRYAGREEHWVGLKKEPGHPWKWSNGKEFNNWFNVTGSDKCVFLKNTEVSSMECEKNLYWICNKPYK
UniProt Q8IWX8: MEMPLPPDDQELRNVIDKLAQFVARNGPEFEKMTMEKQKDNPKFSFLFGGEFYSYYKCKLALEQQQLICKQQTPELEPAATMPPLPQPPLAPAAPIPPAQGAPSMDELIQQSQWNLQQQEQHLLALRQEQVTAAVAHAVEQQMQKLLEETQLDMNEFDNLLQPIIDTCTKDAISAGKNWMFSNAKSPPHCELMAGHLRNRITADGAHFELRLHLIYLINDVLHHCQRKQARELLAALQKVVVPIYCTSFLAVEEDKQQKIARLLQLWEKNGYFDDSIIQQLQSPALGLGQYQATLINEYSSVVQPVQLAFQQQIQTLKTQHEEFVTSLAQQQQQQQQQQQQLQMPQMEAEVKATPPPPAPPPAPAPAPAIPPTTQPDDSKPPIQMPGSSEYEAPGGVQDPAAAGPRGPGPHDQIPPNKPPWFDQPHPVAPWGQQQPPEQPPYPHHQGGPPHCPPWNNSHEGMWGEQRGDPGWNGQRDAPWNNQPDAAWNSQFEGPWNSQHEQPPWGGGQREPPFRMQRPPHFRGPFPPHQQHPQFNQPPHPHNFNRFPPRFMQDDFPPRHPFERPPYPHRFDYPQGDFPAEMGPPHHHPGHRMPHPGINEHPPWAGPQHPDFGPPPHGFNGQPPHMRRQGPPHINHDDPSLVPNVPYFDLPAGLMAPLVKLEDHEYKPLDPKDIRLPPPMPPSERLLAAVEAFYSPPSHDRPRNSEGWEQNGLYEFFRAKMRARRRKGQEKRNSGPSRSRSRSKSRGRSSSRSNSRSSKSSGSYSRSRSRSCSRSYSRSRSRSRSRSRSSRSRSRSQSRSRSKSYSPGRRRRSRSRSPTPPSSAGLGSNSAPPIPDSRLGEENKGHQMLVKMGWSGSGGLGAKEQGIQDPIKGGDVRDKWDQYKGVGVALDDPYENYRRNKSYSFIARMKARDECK
UniProt P11802: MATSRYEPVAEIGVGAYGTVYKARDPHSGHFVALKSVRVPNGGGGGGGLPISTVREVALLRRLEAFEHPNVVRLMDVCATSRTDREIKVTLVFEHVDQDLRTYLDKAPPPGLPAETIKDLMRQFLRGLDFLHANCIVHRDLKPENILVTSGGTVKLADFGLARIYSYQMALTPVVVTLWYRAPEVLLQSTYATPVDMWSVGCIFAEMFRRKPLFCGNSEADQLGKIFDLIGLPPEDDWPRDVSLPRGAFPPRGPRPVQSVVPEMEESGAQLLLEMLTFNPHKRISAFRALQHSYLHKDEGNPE
UniProt O75794: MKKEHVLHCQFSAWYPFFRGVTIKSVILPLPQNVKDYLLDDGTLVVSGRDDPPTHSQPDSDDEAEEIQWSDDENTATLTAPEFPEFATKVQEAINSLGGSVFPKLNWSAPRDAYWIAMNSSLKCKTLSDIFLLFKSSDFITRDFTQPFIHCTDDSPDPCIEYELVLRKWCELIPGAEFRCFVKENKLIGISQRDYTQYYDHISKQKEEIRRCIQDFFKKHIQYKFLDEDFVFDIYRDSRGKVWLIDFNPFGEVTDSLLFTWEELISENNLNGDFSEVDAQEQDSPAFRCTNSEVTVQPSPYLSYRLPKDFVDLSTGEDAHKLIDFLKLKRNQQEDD
UniProt P31146: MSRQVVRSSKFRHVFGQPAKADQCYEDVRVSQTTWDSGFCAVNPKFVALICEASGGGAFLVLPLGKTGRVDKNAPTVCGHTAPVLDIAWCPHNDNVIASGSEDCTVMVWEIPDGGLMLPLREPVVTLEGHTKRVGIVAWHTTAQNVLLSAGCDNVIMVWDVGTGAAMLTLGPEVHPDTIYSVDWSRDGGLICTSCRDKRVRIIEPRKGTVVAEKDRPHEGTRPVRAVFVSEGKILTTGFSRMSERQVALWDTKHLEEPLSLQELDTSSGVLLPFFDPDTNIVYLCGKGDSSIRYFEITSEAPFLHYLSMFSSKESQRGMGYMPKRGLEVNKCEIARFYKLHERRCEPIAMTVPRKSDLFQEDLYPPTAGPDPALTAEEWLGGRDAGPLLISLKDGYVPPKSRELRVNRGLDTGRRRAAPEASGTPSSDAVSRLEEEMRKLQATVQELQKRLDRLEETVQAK
UniProt Q9NX76: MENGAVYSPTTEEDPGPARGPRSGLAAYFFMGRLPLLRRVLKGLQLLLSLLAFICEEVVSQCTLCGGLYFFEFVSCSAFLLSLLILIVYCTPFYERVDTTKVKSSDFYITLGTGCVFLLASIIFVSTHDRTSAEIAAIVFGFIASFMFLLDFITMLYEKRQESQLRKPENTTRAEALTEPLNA
UniProt Q10570: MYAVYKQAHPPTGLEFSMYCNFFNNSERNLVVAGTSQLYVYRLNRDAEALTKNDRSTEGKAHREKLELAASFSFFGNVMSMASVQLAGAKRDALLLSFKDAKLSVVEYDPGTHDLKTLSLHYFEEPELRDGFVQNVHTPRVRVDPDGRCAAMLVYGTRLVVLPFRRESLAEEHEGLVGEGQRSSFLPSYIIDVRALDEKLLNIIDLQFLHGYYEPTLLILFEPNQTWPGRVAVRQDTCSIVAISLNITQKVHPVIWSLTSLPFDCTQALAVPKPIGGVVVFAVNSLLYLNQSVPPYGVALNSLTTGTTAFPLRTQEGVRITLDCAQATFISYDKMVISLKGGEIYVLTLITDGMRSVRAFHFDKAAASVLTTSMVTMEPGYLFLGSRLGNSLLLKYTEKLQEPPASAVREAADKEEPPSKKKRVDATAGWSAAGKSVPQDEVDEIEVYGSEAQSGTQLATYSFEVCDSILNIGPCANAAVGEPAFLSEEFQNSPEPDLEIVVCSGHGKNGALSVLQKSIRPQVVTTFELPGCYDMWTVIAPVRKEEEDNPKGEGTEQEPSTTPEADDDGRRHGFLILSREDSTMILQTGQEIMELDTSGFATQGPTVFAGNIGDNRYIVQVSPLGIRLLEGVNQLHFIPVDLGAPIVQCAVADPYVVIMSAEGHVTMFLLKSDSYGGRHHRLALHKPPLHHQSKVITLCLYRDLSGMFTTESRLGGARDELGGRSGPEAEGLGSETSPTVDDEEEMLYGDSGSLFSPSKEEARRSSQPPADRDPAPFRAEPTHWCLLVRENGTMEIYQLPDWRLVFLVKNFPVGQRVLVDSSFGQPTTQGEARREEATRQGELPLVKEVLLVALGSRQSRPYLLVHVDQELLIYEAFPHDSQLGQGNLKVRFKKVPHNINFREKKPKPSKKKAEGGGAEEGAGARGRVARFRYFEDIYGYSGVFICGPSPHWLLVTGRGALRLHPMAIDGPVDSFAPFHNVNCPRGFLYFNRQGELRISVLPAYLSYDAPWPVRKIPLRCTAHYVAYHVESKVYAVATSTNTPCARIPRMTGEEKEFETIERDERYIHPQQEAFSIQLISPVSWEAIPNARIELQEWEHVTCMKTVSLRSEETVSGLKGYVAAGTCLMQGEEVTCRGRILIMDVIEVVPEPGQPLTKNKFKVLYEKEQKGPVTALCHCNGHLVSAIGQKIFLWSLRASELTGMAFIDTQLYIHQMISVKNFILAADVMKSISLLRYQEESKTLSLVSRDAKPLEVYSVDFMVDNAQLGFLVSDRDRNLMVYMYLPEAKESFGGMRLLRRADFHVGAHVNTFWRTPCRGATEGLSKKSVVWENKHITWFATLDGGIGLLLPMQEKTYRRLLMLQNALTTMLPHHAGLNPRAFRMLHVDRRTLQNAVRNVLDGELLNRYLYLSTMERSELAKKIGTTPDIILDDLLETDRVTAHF
UniProt Q9NYJ1, whole entry: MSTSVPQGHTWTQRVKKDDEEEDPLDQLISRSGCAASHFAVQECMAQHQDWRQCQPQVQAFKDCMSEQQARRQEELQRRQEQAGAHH
UniProt Q9UIB8: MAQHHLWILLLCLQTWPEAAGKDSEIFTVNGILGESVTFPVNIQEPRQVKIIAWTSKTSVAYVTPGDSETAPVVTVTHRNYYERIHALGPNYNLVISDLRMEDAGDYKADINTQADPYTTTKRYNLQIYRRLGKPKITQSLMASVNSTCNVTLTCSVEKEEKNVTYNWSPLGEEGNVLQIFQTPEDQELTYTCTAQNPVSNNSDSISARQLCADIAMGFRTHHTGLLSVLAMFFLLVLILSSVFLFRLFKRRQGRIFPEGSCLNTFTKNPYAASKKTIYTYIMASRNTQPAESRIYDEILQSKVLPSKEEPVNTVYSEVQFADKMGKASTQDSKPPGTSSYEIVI
UniProt P61024, whole entry: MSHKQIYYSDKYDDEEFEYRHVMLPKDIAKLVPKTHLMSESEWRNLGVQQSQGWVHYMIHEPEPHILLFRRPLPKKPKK
UniProt P41208: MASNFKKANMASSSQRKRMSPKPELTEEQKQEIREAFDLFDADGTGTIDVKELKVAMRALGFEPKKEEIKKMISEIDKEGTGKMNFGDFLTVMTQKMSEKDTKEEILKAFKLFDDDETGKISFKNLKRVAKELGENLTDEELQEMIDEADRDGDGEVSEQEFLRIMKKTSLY
UniProt Q9H078: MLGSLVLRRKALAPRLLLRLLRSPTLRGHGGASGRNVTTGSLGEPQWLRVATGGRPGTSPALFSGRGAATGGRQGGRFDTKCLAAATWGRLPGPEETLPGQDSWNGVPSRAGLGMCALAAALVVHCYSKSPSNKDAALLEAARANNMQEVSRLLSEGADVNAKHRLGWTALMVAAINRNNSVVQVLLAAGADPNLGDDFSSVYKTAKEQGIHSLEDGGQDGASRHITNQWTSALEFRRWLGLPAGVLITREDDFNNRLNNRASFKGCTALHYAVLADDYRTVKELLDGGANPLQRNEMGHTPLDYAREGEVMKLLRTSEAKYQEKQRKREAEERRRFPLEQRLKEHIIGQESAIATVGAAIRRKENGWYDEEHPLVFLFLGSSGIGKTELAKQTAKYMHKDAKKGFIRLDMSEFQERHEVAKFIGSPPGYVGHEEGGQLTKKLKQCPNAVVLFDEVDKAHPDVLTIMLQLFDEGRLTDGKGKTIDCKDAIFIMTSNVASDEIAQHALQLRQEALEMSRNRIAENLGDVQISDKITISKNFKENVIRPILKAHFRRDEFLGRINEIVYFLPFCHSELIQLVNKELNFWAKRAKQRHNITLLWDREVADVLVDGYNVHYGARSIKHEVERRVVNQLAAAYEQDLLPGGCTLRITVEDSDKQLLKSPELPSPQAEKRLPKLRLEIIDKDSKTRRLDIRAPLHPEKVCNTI
UniProt Q9P021, whole entry: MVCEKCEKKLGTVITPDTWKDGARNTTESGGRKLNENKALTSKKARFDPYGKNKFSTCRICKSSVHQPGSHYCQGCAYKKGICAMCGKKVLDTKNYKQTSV
UniProt Q7L5N1: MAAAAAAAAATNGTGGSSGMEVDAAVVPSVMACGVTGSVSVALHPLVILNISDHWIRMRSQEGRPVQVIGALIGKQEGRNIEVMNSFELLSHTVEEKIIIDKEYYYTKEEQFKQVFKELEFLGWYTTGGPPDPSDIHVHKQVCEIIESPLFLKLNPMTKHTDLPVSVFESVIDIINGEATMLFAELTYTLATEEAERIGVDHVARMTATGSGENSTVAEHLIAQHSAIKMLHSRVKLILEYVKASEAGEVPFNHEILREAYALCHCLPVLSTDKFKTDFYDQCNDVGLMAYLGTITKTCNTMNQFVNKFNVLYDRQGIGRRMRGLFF
UniProt P26374: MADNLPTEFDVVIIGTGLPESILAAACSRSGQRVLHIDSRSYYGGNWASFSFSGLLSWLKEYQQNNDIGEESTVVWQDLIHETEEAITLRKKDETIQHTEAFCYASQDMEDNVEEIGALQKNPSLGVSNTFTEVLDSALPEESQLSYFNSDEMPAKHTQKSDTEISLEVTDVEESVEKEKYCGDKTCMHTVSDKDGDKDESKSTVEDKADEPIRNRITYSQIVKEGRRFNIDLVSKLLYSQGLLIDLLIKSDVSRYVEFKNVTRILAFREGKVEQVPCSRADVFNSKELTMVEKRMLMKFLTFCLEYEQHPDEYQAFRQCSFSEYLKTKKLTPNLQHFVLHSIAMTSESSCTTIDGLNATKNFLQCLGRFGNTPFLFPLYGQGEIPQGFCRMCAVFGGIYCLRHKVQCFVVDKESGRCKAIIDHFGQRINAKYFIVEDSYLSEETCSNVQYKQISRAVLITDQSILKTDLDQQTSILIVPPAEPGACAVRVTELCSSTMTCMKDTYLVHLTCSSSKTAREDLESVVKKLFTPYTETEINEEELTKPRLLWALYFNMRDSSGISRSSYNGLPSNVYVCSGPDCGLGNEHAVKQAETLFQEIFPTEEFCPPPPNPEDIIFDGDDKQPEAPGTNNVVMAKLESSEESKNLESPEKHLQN
UniProt Q9UBW8: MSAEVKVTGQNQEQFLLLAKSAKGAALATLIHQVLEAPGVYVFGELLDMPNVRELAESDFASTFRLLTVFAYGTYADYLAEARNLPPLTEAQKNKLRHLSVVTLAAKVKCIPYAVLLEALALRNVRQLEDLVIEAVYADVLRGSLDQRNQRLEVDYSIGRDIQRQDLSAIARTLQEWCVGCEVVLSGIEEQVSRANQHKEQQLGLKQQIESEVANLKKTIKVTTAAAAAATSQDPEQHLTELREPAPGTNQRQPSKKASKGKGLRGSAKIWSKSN

Compound: COc1ccc(Cn2ccc3cc(C)c(C(=O)NO)cc32)cc1
Test: dose-dependent thermal stabilisation call (2D-TPP, DLPTP, 10% FDR) (binary (1 = stabilised)); higher = stabilised by the compound
Conditions: system: HL-60 intact cells; concentration range 0.04-10 µM
Experimental: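 2D thermal proteome profiling in intact HL-60 cells treated with BRD-3811 (0, 0.04, 0.29, 2, 10 uM) for 90 min at 37 C, then heated 3 min at one of 12 temperatures (42-63.9 C). Soluble protein was quantified by TMT10 MS. The value is the DLPTP call of the paper: dose-dependent thermal stabilisation over all temperatures at 10% FDR (F-test of a dose-response against a flat model); one experiment, one call per tested protein.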

Target | dose-dependent thermal stabilisation call
CD99 (UniProt P14209) | inactive: 0
COPG (UniProt Q9Y678) | inactive: 0
CD69 (UniProt Q07108) | inactive: 0
CDCA2 (UniProt Q69YH5) | inactive: 0
CHERP (UniProt Q8IWX8) | inactive: 0
CDK4 (UniProt P11802) | inactive: 0
CDC123 (UniProt O75794) | inactive: 0
CEBPE (UniProt Q15744) | inactive: 0
CPSF6 (UniProt Q16630) | inactive: 0
CORO1A (UniProt P31146) | inactive: 0
CROP (UniProt O95232) | inactive: 0
CHST12 (UniProt Q9NRB3) | inactive: 0
CMTM6 (UniProt Q9NX76) | inactive: 0
CD81 (UniProt P60033) | inactive: 0
CPSF1 (UniProt Q10570) | inactive: 0
CDC25C (UniProt P30307) | inactive: 0
CRBN (UniProt Q96SW2) | inactive: 0
CHCHD8 (UniProt Q9NYJ1) | inactive: 0

Target | dose-dependent thermal stabilisation call
CD84 (UniProt Q9UIB8) | inactive: 0
CKS1B (UniProt P61024) | inactive: 0
CPS1 (UniProt P31327) | inactive: 0
CETN2 (UniProt P41208) | inactive: 0
CLPB (UniProt Q9H078) | inactive: 0
CHCHD2 (UniProt Q9Y6H1) | inactive: 0
CRIPT (UniProt Q9P021) | inactive: 0
COPS6 (UniProt Q7L5N1) | inactive: 0
COG7 (UniProt P83436) | inactive: 0
CENPV (UniProt Q7Z7K6) | inactive: 0
CDC37L1 (UniProt Q7L3B6) | inactive: 0
COX15 (UniProt Q7KZN9) | inactive: 0
CHML (UniProt P26374) | inactive: 0
CD63 (UniProt P08962) | inactive: 0
CDC16 (UniProt Q13042) | inactive: 0
CEP27 (UniProt Q9NVX0) | inactive: 0
CEP170 (UniProt Q5SW79) | inactive: 0
COPS7A (UniProt Q9UBW8) | inactive: 0

Some of the entries above in a different format.

| Target | dose-dependent thermal stabilisation call |
| --- | --- |
| CHCHD2 (UniProt Q9Y6H1) | inactive: 0 |
| CRIPT (UniProt Q9P021) | inactive: 0 |
